Reference: patent publication US9200082B2, “Methods and compositions involving fibrillizing polypeptides for nanofibers” (The University of Chicago, priority 2013, dated 2015)
At least one peptide structure holds a part that was inferred or is arguable (an end, a ring closure or a residue). No end group written: not given here.

Test: Circular dichroism, secondary structure
Type: physicochemical
Settings: for secondary structure in the absence of Q11: 25 μM peptide, overnight assembly; for secondary structure in the presence of Q11: 10-fold molar excess of Q11 (25 μM plus 250 μM), overnight; for secondary structural transition of the peptide alone (FIG. 1B-C): over time

Substance: GKPEGEKPKSEGGPGHSEGHKPKSEG-NH2 [mutated βTail]
- secondary structure in the absence of Q11: random coil conformation
- secondary structure in the presence of Q11: random coil conformation
- secondary structural transition of the peptide alone (FIG. 1B-C): adopted a random coil structure

Substance: MALKVELEKLKSELVVLHSELHKLKSEL-NH2 [βTail]
- secondary structure in the absence of Q11: α-helical 2° structure
- secondary structure in the presence of Q11: predominantly β-sheet 2° structure
- secondary structural transition of the peptide alone (FIG. 1B-C): slow secondary structural transition from an α-helix to a β-sheet

Substance: QQKFQFQFEQQ-NH2 [Q11]
- secondary structural transition of the peptide alone (FIG. 1B-C): rapidly assembled into β-sheets
